Drawing on article PMC8390757, this text covers binding for two substances.

Sequences of proteins named here, by UniProt entry; tags and fusion partners are left off.
UniProt P60335: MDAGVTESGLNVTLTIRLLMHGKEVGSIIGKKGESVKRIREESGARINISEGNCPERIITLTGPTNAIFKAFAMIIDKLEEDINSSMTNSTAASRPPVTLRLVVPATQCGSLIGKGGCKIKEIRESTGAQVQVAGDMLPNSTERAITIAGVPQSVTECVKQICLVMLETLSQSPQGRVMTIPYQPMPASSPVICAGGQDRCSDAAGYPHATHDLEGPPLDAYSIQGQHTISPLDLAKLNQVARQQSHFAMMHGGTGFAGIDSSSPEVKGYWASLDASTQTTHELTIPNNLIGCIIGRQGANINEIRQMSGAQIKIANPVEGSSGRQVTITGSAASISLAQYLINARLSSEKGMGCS
UniProt Q61990: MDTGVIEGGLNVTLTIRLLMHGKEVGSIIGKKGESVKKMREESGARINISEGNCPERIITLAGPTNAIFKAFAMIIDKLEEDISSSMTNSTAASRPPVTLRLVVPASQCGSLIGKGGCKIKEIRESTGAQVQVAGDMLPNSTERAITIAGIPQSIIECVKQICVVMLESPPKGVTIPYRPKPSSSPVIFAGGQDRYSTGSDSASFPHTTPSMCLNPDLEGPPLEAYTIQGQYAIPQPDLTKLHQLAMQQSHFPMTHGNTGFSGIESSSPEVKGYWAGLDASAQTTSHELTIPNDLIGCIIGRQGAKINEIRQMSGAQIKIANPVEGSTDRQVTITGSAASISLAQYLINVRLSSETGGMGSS

This experiment concerns the target FLAG-tagged PTENα (bait of the FLAG pull-down with mass spectrometry) (UniProt P60484). Briefly: affinity purification with mass spectrometry; FLAG-tagged PTENα expressed in cells treated with 100 μM H2O2; whole-cell extracts on FLAG-beads, washed four times with PBS with 0.1% NP40, eluted with 3× FLAG-peptide, SDS-PAGE, in-gel trypsin digestion, LTQ Orbitrap Elite.

Results are given in words; binding and its absence hold for the method and conditions named. Binding seen in cells or lysates may run through a third protein. These calls come from enrichment with a bait or labelling near it, and not all partners need be listed.

As to PCBP1 (from UniProt P60335 1-356), the binding result is “binds”.

For PCBP2 (from UniProt Q61990 1-362), the binding entry is on record as “binds”.
